Broadly, the AC50 is the concentration at which the activity in the assay is half-maximal. The low end stands for activity at low concentration, the high end for activity only at high concentration.

SMILES strings stand for the structures. This is one part of the list. Further columns of the screen follow, without active or inactive calls. Most of these compounds were active or inconclusive in the main read-out, so they are no random draw. Words in brackets tell the shape of the fitted curve; partial curves, single points and poor fits give uncertain potencies.

64 compounds from PubChem BioAssay AID2685 (National Center for Advancing Translational Sciences (NCATS), 2010) can be followed below.

This test can be described thus: qHTS Assay for Lipid Storage Modulators in Drosophila S3 Cells.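 On cell number change: cells counted by Cell Tracker Red CMTPX staining in the red channel.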 The settings on record: BODIPY lipid droplet fluorescence, 18-24 h; for cell number change: measured here: cell count max response, cells fed with added oleic acid. The method in brief:
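Laser-scanning cytometry quantifies lipid droplet accumulation (500–530 nm total intensity; droplet/cell object ratio) in oleic acid-fed (400 uM added) Drosophila S3 cells treated with a concentration series. 20 uM Triacsin C defined 100% inhibition.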
In general terms: In qHTS, concentration-response curves come from the screen itself.

Setting [1] is: measured here: cell number channel AC50, cells fed with added oleic acid.
Where [2] appears, read: measured here: lipid fluorescence (Fed channel) AC50, cells fed with added oleic acid.

Regarding `Cc1ccc(C)c(C(=O)CCC(=O)NCc2ccc(Cl)cc2)c1`, the cell number change is -15.4%. Also, the AC50 under setting [1] was 4.61 µM [falling, single point]. For the same compound, the AC50 under setting [2] is 2.06 µM [falling, partial curve].
On to `O=C(CC1c2ccccc2Oc2ccccc21)Nc1ccccc1C(F)(F)F`, for which the AC50 under setting [1] is 6.51 µM [rising, single point].
As for `Cc1ccc(C(=O)NCCNC(=O)CN2CCCC2)cc1`, the cell number change is -18.8%. For the same compound, under setting [2], the AC50 is 4.11 µM [falling, full curve].
For `O=C(Nc1ccc(N2CCCCC2)cc1)c1ccccc1`, the cell number change was determined as 57%.
On to `CC(=O)NC(Cc1ccc(F)c(F)c1)C(=O)NC1CCN(C(=O)c2ccc(Cl)cc2)CC1` (stereo not drawn), for which the cell number change stood at 5.56%.
On to `S=c1[nH]nc(-c2ccncc2)n1/N=C/c1cn(-c2ccccc2)nc1-c1ccccc1`, for which the cell number change was -39.5%. For the same compound, the AC50 under setting [1] was 29.1 µM [falling, single point]. In addition, the concentration at half-maximal activity (AC50) under setting [2] was 23.1 µM [falling, single point].
Take `CCOc1ccc(CCNC(=O)c2nn(C)c3c2CS(=O)(=O)c2ccccc2-3)cc1`: the cell number change was 14%.
Still for that read-out and setting: to `Cc1c(C(=O)NN)sc(=S)n1C` belongs 9.47%.
With `CN(Cc1cccnc1)Cc1cn(Cc2ccccc2)nc1-c1ccc2c(c1)OCO2`, the cell number change stood at 18.3%. Besides, the AC50 under setting [2] was 0.184 µM [rising, full curve, poor fit].
With `COC(=O)c1ccc(SCc2cnc(Cl)s2)cc1`, the cell number change was determined as 48.3%.
On to `CS(=O)(=O)Nc1ccc(-c2cn3cccnc3n2)cc1`, for which the cell number change was -7.96%. In addition, under setting [2], the AC50 was 0.116 µM [rising, full curve, poor fit].
On to `CC(C)(C)C(=O)NC(=S)Nc1cc(C(=O)O)ccc1Cl`, for which the cell number change was determined as 3.23%.
Turning to `Cc1cc(NC(=O)CSc2ccc(-c3ccc4c(c3)OCO4)nn2)no1`, the AC50 under setting [1] was 1.3 µM [falling, full curve].
As for `COc1cc2c(cc1OC)CN(CC(=O)Nc1ccccc1C(=O)NCc1ccccc1)CC2`, the cell number change is -31.4%. Besides, the AC50 under setting [1] is 2.06 µM [falling, partial curve, poor fit].
As to `COc1ccc(OC)c2c1sc(=NC(=O)C1CC1)n2C`, the cell number change was 13.6%. Also, the AC50 under setting [2] is 7.31 µM [rising, partial curve].
For the compound `COc1ccccc1NC(=O)NCC1(N(C)C)CCCCC1`, the concentration at half-maximal activity (AC50) under setting [2] was 1.12 µM [falling, full curve, poor fit].
With `COc1ccc2c(C)cc(SCC(=O)Nc3nsc(-c4ccc(C)cc4)n3)nc2c1`, the cell number change was -28.8%. Besides, the AC50 under setting [2] was 29.1 µM [falling, single point].
Turning to `Cn1c(=O)c2c(nc(CN3CCc4ccccc4C3)n2Cc2ccccc2F)n(C)c1=O`, under setting [2], the AC50 was 2.59 µM [rising, partial curve].
`O=C(Nc1ccccc1)C1CCCN1S(=O)(=O)c1ccc(Br)cc1` (stereo not drawn): the cell number change stood at 13.9%.
Regarding `COc1ccc(/C(C)=N/OC/C(O)=C(\C#N)c2nc3ccccc3[nH]2)cc1OC`, the cell number change stood at 23.4%. In addition, the concentration at half-maximal activity (AC50) under setting [2] is 0.731 µM [rising, full curve, poor fit].
With `Cn1cccc1-c1nc2ccc(NC(=O)c3ccco3)cc2[nH]1`, the cell number change stood at 17.5%. In addition, under setting [1], the AC50 was 0.517 µM [rising, full curve, poor fit].
As to `O=C(O)c1ccc(Nc2nc3ccccc3nc2NS(=O)(=O)c2ccc(F)cc2)cc1`, the cell number change was -2.75%. The AC50 under setting [2] is 0.517 µM [falling, full curve, poor fit].
`COC(=O)c1cc(C(=O)OC)cc(-n2c(C)cc(C(=O)CC#N)c2C)c1`: the cell number change was -25.1%. Moreover, under setting [2], the AC50 is 29.1 µM [falling, single point].
For the compound `Cc1coc2cc3oc(=O)c(CCC(=O)NCC(=O)O)c(C)c3cc12`, the cell number change was 46.5%. The AC50 under setting [1] was 5.8 µM [rising, full curve, poor fit].
Take `Cc1cc(Nc2ccccc2)n(C(=O)c2ccccc2)n1`: the cell number change was 34.3%. Also, the AC50 under setting [1] was 11.6 µM [rising, partial curve]. The AC50 under setting [2] is 6.51 µM [falling, single point].
In the case of `C/C(=N/N1CCN(Cc2cccc3ccccc23)CC1)c1cccnc1`, the cell number change was -3.79%. In addition, the AC50 under setting [2] was 2.91 µM [falling, single point].
Take `CCOC(=O)c1c(Nc2ccc(Cl)cc2)sc(/C=C2\C=Nc3ccccc32)c1O`: the cell number change was 38%. In addition, the AC50 under setting [2] is 1.3 µM [rising, full curve].
For `COc1ccc(C2=NCCNC(C(F)(F)F)=C2)cc1`, the cell number change was -8.36%. Under setting [2], the AC50 was 0.731 µM [falling, full curve].
On to `CN(C(=O)C1CCC1C(=O)O)c1nc(-c2ccc(Cl)s2)cs1` (stereo not drawn), for which the cell number change is -45.7%. Further, under setting [1], the AC50 was 29.1 µM [falling, single point]. In addition, under setting [2], the AC50 was 29.1 µM [falling, single point].
As to `COc1ccc(C(C)NC(=O)Cc2cccs2)cc1` (stereo not drawn), the cell number change is -17.3%. Besides, the AC50 under setting [1] was 0.82 µM [falling, full curve, poor fit].
For the compound `CCOc1ccc(NC(=O)COC(=O)COc2cccc3c2OC(C)(C)C3)cc1`, the cell number change was 1.62%.
In the case of `Cn1c(=O)c(=O)n(C)c2cc(N3CCOCC3)c(NS(=O)(=O)c3ccc(F)c(Cl)c3)cc21`, the AC50 under setting [2] was 0.58 µM [rising, single point].
For `Cc1cc(NC(=O)CSc2nc(C(C)C)nc3sc(C)c(C)c23)no1`, the cell number change was -3.04%. In addition, the AC50 under setting [2] is 0.146 µM [rising, full curve].
`O=C(CSc1nnc(-c2cnccn2)n1Cc1ccco1)c1ccc2ccccc2c1`: the cell number change stood at 3.81%. Further, the AC50 under setting [2] is 0.082 µM [rising, full curve, poor fit].
With `Cc1ccc(CNC(=O)C2CCC(CNc3nc(=S)[nH]c4ccccc34)CC2)cc1` (stereo not drawn), the AC50 under setting [2] was 3.66 µM [rising, partial curve, poor fit].
`COc1ccc(NS(=O)(=O)c2ccc3oc(Nc4ccc5c(c4)OCCO5)nc3c2)cc1`: the cell number change was 90.2%. Under setting [1], the AC50 was 10.3 µM [rising, partial curve].
Regarding `COc1ccc(NC(=O)Cn2c(=O)oc3cc(S(=O)(=O)N4CCCC4)ccc32)cc1`, the cell number change amounted to 8.68%.
Consider `O=C(Nc1cccc(F)c1)c1ccc(-c2ccccc2C(F)(F)F)o1`, for which the cell number change came to 41.6%. Further, the AC50 under setting [1] was 14.6 µM [rising, partial curve, poor fit]. Besides, under setting [2], the AC50 is 7.31 µM [rising, partial curve].
For the compound `COc1ccc(S(=O)(=O)N2CCOC2CNC(=O)C(=O)NCCCc2ccccc2)cc1` (stereo not drawn), the cell number change is -11.2%.
Regarding `CCCc1cc(C(=O)Nc2cc(Br)ccc2O)no1`, the cell number change was -4.5%. In addition, the AC50 under setting [2] is 11.6 µM [falling, partial curve].
`Cc1n[nH]c(C)c1S(=O)(=O)N1CCCC(C(=O)NCc2ccccc2Cl)C1` (stereo not drawn): the cell number change was found to be 16.8%. For the same compound, the AC50 under setting [2] was 6.51 µM [rising, single point].
For `CCOC(=O)c1c(NC(=O)CSc2nc3ccccc3c(=O)n2-c2ccccc2)sc(C(C)=O)c1C`, the cell number change was 21.9%. Besides, the AC50 under setting [2] is 7.31 µM [rising, partial curve, poor fit].
Turning to `O=C(O)c1[nH]c2ccc(Cl)cc2c1CC(=O)N1CCN(C(=O)c2ccco2)CC1`, the cell number change was -42.4%. In addition, the AC50 under setting [1] was 18.4 µM [falling, single point]. Besides, the AC50 under setting [2] is 20.6 µM [falling, single point].
As to `O=C(CSC1=NCCN1)NC12CC3CC(CC(C3)C1)C2`, the cell number change is -25.7%. Further, the AC50 under setting [2] was 5.8 µM [falling, full curve].
As for `OCc1csc(=Nc2ccccc2)n1-c1ccccc1`, the cell number change was -9.26%. Further, the half-maximal activity concentration (AC50) under setting [2] was 0.231 µM [falling, full curve, poor fit].
Regarding `NC(=O)CC(NC(=O)c1ccccc1)c1ccc(NC2CCN(Cc3ccccc3)CC2)c([N+](=O)[O-])c1` (stereo not drawn), the cell number change was found to be 9.58%.
In the case of `COc1ccc(S(=O)(=O)N2CCCCCC2)cc1C(=O)N1CCCC(C(F)(F)F)C1` (stereo not drawn), the cell number change was determined as 40.2%. Moreover, under setting [1], the AC50 was 4.11 µM [rising, full curve, poor fit].
As for `Cc1ccc(-n2nc3c(c2NC(=O)c2ccc(F)c(F)c2)CS(=O)(=O)C3)cc1`, the cell number change was -13.4%. Under setting [2], the concentration at half-maximal activity (AC50) was 29.1 µM [falling, single point].
`O=C(O)CC(c1ccc(F)cc1F)N1Cc2ccccc2C1=O` (stereo not drawn): the cell number change is -22.4%. The AC50 under setting [2] is 11.6 µM [falling, partial curve].
For the compound `Cc1ccc(NC(=O)CCC(=O)c2cccs2)cc1F`, the cell number change amounted to 8.97%. For the same compound, under setting [2], the AC50 was 29.1 µM [rising, single point].
For `CC1CCN(C(=O)CNC(=O)CNS(=O)(=O)c2ccccc2)CC1`, the cell number change was 29.4%.
Take `Cc1onc(-c2ccccc2Cl)c1C(=O)N1CCN(Cc2ccc3c(c2)OCO3)CC1`: the cell number change is -35.5%. Under setting [1], the AC50 is 14.6 µM [falling, partial curve]. In addition, the half-maximal activity concentration (AC50) under setting [2] is 23.1 µM [falling, partial curve, poor fit].
Turning to `CSc1ccc(C(=O)C2CCCN(C(=O)Cn3cnnn3)C2)cc1` (stereo not drawn), the cell number change was found to be 17.5%. Besides, under setting [2], the AC50 was 25.1 µM [rising, single point].
Regarding `Fc1cccc(Cl)c1CSc1ccc2nnc(-c3ccccn3)n2n1`, the cell number change stood at 1.23%.
As to `Cc1ccccc1NC(=O)C(NC1CCCCC1)C(C)C` (stereo not drawn), the cell number change was found to be 19.1%. Moreover, under setting [2], the AC50 was 0.0651 µM [rising, full curve, poor fit].
Turning to `CC(=O)Nc1ccc(NC(=O)c2ccc(CSc3ccccc3)o2)cc1`, the cell number change was determined as 18%. Also, under setting [2], the AC50 was 8.2 µM [rising, partial curve, poor fit].
Turning to `Cc1cc(C)cc(-n2ccnc2SCC(=O)Nc2ccc3c(c2)OCCO3)c1`, under setting [1], the AC50 was 2.06 µM [rising, partial curve].
Consider `O=C1CCN(CCc2ccccc2)CCN1[C@H](CO)c1ccccc1`, for which the cell number change worked out at 0.299%.
Take `Cc1cc2[nH]c(=O)c(=O)[nH]c2cc1S(=O)(=O)N1CCN(c2cccc(C)c2C)CC1`: the cell number change worked out at 33.7%. The AC50 under setting [1] was 32.6 µM [rising, single point]. For the same compound, under setting [2], the concentration at half-maximal activity (AC50) is 11.6 µM [falling, partial curve].
For `CCCCNC(=S)NCc1ccc2[nH]c(C)cc2c1`, the cell number change is -20.8%. Besides, the AC50 under setting [2] was 8.2 µM [rising, partial curve].
As for `Nc1ccc2oc(=O)c3ccccc3c2c1`, the cell number change is -34.2%. Besides, the AC50 under setting [1] was 29.1 µM [falling, single point].
For `O=C(O)CSc1nnc(-c2ccc(Cl)cc2Cl)n1-c1ccc(Cl)cc1`, the cell number change stood at 19.3%.
The same measure, in the same setting: to `N#Cc1c(C(F)(F)F)cc(-c2ccccc2)[nH]c1=O` belongs -1.15%.
As for `COc1ccc(OCC(=O)Nc2ccc(S(=O)(=O)N3CCCCC3)cc2)cc1`, the cell number change is -32.9%. For the same compound, the AC50 under setting [1] is 20.6 µM [falling, single point].
